Eight sequences from PMC6029763 can be followed below.

Chains of the proteins cited; added tags and fusions are not shown. Lines headed by an entry give the natural chain unless they say otherwise; changes in a name come on top.
UniProt P23771: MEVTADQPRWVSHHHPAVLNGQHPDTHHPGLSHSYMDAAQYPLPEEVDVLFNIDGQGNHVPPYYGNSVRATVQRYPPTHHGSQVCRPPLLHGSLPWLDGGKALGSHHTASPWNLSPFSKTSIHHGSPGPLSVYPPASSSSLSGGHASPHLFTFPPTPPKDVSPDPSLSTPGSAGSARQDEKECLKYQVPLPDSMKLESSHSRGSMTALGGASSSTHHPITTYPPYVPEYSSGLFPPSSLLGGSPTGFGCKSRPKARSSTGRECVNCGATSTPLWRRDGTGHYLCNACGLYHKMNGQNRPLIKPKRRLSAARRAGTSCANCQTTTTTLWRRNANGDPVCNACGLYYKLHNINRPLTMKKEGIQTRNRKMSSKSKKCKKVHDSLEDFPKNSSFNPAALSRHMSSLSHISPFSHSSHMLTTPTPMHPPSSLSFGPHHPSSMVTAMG

Construct, isoform or probe ends are uncertain for at least one entry. For some of these results: Negatives hold for the conditions tested. For some of these results: Protein sequences can lack the tags named with them. For some of these results: Weaker means in comparison with the reference protein, sequence or condition of that experiment. For some of these results: At least one result comes from cells or an extract, where the contact may be indirect. For some of these results: At least one verdict was read from the data and is not stated in words by the source.

In data set [1] the target is GATA3 (Th2 nuclear extract) (Homo sapiens) (UniProt P23771). The data set can be described thus: competition with a labelled probe. As to conditions: 100X cold competitor; EMSA: 50 mM NaCl, 10% glycerol, poly dI:dC 50 ng/uL, BSA 0.2 ug/uL, protease inhibitor, on ice 30 min; 5% native PAGE, 0.5X TBE, 4 C; pH not stated; protein in an extract; label: unlabeled. (A gel shift assay detects complexes by their altered migration in electrophoresis.)

Data set [2] deals with T1, NFAT1 (Th2 nuclear extract) (Homo sapiens) (UniProt Q13469).
T1 sequence (looked up, limits assumed): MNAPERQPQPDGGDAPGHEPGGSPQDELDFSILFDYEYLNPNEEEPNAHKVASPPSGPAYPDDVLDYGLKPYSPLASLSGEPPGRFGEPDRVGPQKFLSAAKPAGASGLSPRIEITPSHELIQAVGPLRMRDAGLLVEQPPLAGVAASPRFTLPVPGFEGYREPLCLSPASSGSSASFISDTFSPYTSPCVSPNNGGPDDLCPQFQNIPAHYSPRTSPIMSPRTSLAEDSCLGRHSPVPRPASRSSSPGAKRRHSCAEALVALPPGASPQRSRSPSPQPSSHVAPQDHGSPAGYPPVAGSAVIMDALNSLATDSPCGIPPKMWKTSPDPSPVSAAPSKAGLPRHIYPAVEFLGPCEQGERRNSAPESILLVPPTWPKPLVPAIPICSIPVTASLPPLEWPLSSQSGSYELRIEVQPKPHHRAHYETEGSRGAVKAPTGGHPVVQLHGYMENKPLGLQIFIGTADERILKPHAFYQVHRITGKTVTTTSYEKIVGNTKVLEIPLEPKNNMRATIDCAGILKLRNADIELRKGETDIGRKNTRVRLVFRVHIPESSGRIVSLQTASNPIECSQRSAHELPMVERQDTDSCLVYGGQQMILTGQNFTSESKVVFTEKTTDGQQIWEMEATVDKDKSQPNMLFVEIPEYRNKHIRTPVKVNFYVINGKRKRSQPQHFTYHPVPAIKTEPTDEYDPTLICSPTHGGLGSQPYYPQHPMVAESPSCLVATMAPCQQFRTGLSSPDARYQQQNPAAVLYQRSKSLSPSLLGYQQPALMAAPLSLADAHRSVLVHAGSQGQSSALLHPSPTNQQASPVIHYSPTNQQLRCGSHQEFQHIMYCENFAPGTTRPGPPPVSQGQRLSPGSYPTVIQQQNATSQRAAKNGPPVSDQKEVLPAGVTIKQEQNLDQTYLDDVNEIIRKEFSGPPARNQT
The data set can be described thus: competition with a labelled probe. Conditions: 100X cold competitor; EMSA: 50 mM NaCl, 10% glycerol, poly dI:dC 50 ng/uL, BSA 0.2 ug/uL, protease inhibitor, on ice 30 min; 5% native PAGE, 0.5X TBE, 4 C; pH not stated; protein in an extract; label: unlabeled.

Data set [3] deals with T2, NFAT1 (recombinant human, TnT) (Homo sapiens) (UniProt Q13469).
T2 sequence (looked up, limits assumed): T1 sequence (looked up, limits assumed)
The data set can be described thus: EMSA. Conditions: EMSA: 50 mM NaCl, 10% glycerol, poly dI:dC 50 ng/uL, BSA 0.2 ug/uL, protease inhibitor, on ice 30 min, 5% native PAGE, 0.5X TBE, 4 C, pH not stated, protein translated in vitro.

Data set [4] has as its target GATA3 (recombinant human, TnT) (Homo sapiens) (UniProt P23771). The data set can be described thus: EMSA. Conditions: EMSA: 50 mM NaCl, 10% glycerol, poly dI:dC 50 ng/uL, BSA 0.2 ug/uL, protease inhibitor, on ice 30 min, 5% native PAGE, 0.5X TBE, 4 C, pH not stated, protein translated in vitro.
The target is the same in data set [5]. The data set can be described thus: competition with a labelled probe. As to conditions: 100X cold competitor, EMSA: 50 mM NaCl, 10% glycerol, poly dI:dC 50 ng/uL, BSA 0.2 ug/uL, protease inhibitor, on ice 30 min, 5% native PAGE, 0.5X TBE, 4 C, pH not stated, protein translated in vitro.
The target in data set [6] is GATA3 (Th2 nuclear extract) (Homo sapiens) (UniProt P23771). The data set can be described thus: EMSA supershift. Conditions: PMA/ionomycin 3 h extract; EMSA: 50 mM NaCl, 10% glycerol, poly dI:dC 50 ng/uL, BSA 0.2 ug/uL, protease inhibitor, on ice 30 min; 5% native PAGE, 0.5X TBE, 4 C; pH not stated; protein in an extract; label: 5'-32P as probe, unlabeled as competitor.

Data set [7] has as its target T1, NFAT1 (Th2 nuclear extract) (Homo sapiens). The data set can be described thus: EMSA supershift. Conditions: PMA/ionomycin 3 h extract; EMSA: 50 mM NaCl, 10% glycerol, poly dI:dC 50 ng/uL, BSA 0.2 ug/uL, protease inhibitor, on ice 30 min; 5% native PAGE, 0.5X TBE, 4 C; pH not stated; protein in an extract; label: 5'-32P as probe, unlabeled as competitor.
The target of data set [8] is GATA3 (recombinant human, TnT) (Homo sapiens) (UniProt P23771). The data set can be described thus: EMSA with self-competition and supershift. Conditions: EMSA: 50 mM NaCl, 10% glycerol, poly dI:dC 50 ng/uL, BSA 0.2 ug/uL, protease inhibitor, on ice 30 min; 5% native PAGE, 0.5X TBE, 4 C; pH not stated; protein translated in vitro; label: 5'-32P as probe, unlabeled as competitor.

Setting [9] is: label: 5'-32P as probe, unlabeled as competitor.

Take “CCTCTATCTGATTGTTAGCC (double strand) [GATA3 consensus]”: the binding result in data set [1] is on record as “binds”.

For the sequence “CGGAGGAAAAACTGTTTCATACAGAAGGCGTG (double strand) [NFAT consensus]”, the binding result in data set [2] is given as “binds”.

Take “CGGCATTCATGGAAATTGATGAAATTTGAAC (double strand) [GATA3-m1+m3 (Gm1+m3)]”: the binding result is on record as “binds more weakly” in data set [3] (binds (lane 9), appeared lower affinity than Gm3 probe (lane 10), label: 5'-32P as probe, unlabeled as competitor); “no binding” in data set [4] (setting [9]); “no binding” in data set [5] (setting [9]).

As for “CGGCATTCATGGAAATTGATGATATTTGAAC (double strand) [GATA3-m1 (Gm1)]”, the binding result in data set [4] (setting [9]) and in data set [5] (setting [9]) was “no binding” each time.

“CGGCATTGATCCTTATTGATGATATTTGAAC (double strand) [NFAT1.1 (N1 mutant)]”: the binding result in data set [3] (label: 5'-32P) is on record as “no binding”; in data set [4] (label: 5'-32P), “binds”.

Turning to “CGGCATTGATGGAAATTCATGATATTTGAAC (double strand) [GATA3-m2 (Gm2)]”, in data set [5] (label: unlabeled), the binding result was “binds”.

Turning to “CGGCATTGATGGAAATTGATGAAATTTGAAC (double strand) [GATA3-m3 (Gm3)]”, the binding result in data set [3] (setting [9]) is reported as “binds”; in data set [4] (setting [9]), “no binding”; in data set [5] (setting [9]), “no binding”.

Turning to “CGGCATTGATGGAAATTGATGATATTTGAAC (double strand) [CRTh2 proximal]”, the binding result in data set [6], in data set [7] and in data set [8] was “binds” in each case.
